The other results are listed elsewhere or left out.
How the values were obtained:
Test in all cases: log2 fold change, soluble protein after heating vs DMSO (PISA); higher = thermal stabilisation; K562 lysate, 10 uM; active = over 0.2 and 3.5 SD of the protein, either way, in both replicates (recomputed)
[1] = compound: CS(=O)(=O)CCNCc1ccc(-c2ccc3ncnc(Nc4ccc(OCc5cccc(F)c5)c(Cl)c4)c3c2)o1 [lapatinib]
In short: (§1)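 A 30 min treatment with 10 μM compound was applied to crude K562 extract at 1 mg/mL protein in PBS pH 7.4 with 1 mM MgCl2. Heating for 3 min spanned 48°C-58°C, after which aliquots were pooled, adjusted to 0.5% NP-40 at 4°C and spun at 21,000xg for 90 min. TMTpro 16plex LC-MS/MS of the supernatant, with channel sums equalised, gave values recorded as log-two fold change in thermal stability against solvent controls, from duplicates.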

By UniProt entry, the sequences of proteins in these tests, tags left out. Where a name states a change or a piece, a line headed by the entry shows the natural chain unless it says otherwise.
UniProt Q5TC12: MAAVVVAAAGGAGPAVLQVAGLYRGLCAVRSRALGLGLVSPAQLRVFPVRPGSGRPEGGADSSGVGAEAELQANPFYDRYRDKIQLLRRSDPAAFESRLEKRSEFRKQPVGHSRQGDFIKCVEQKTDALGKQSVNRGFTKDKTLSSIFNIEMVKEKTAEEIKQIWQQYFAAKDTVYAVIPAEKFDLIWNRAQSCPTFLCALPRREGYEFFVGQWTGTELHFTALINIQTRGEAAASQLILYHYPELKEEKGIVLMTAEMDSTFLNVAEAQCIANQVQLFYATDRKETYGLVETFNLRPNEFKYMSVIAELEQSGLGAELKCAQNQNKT
UniProt Q8WXE1: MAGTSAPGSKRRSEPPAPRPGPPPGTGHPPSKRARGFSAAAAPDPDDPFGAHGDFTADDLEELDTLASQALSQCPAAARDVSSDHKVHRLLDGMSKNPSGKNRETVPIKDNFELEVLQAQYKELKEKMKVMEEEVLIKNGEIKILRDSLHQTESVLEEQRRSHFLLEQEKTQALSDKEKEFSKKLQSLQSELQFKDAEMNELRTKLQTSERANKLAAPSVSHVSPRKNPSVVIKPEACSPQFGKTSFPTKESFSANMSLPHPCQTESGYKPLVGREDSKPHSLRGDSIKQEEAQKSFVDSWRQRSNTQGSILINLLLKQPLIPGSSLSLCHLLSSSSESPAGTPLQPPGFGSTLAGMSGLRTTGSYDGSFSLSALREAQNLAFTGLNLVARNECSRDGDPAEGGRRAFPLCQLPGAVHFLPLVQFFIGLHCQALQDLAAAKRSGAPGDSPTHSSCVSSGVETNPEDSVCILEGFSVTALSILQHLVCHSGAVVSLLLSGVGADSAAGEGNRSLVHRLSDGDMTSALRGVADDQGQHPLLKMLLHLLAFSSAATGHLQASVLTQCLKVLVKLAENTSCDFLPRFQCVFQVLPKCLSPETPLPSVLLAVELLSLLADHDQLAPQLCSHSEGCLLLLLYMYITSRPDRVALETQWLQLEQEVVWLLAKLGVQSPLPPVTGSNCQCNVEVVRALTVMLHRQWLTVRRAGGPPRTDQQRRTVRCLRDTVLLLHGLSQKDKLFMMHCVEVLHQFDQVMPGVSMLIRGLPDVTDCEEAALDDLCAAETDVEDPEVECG
UniProt Q8IZT6: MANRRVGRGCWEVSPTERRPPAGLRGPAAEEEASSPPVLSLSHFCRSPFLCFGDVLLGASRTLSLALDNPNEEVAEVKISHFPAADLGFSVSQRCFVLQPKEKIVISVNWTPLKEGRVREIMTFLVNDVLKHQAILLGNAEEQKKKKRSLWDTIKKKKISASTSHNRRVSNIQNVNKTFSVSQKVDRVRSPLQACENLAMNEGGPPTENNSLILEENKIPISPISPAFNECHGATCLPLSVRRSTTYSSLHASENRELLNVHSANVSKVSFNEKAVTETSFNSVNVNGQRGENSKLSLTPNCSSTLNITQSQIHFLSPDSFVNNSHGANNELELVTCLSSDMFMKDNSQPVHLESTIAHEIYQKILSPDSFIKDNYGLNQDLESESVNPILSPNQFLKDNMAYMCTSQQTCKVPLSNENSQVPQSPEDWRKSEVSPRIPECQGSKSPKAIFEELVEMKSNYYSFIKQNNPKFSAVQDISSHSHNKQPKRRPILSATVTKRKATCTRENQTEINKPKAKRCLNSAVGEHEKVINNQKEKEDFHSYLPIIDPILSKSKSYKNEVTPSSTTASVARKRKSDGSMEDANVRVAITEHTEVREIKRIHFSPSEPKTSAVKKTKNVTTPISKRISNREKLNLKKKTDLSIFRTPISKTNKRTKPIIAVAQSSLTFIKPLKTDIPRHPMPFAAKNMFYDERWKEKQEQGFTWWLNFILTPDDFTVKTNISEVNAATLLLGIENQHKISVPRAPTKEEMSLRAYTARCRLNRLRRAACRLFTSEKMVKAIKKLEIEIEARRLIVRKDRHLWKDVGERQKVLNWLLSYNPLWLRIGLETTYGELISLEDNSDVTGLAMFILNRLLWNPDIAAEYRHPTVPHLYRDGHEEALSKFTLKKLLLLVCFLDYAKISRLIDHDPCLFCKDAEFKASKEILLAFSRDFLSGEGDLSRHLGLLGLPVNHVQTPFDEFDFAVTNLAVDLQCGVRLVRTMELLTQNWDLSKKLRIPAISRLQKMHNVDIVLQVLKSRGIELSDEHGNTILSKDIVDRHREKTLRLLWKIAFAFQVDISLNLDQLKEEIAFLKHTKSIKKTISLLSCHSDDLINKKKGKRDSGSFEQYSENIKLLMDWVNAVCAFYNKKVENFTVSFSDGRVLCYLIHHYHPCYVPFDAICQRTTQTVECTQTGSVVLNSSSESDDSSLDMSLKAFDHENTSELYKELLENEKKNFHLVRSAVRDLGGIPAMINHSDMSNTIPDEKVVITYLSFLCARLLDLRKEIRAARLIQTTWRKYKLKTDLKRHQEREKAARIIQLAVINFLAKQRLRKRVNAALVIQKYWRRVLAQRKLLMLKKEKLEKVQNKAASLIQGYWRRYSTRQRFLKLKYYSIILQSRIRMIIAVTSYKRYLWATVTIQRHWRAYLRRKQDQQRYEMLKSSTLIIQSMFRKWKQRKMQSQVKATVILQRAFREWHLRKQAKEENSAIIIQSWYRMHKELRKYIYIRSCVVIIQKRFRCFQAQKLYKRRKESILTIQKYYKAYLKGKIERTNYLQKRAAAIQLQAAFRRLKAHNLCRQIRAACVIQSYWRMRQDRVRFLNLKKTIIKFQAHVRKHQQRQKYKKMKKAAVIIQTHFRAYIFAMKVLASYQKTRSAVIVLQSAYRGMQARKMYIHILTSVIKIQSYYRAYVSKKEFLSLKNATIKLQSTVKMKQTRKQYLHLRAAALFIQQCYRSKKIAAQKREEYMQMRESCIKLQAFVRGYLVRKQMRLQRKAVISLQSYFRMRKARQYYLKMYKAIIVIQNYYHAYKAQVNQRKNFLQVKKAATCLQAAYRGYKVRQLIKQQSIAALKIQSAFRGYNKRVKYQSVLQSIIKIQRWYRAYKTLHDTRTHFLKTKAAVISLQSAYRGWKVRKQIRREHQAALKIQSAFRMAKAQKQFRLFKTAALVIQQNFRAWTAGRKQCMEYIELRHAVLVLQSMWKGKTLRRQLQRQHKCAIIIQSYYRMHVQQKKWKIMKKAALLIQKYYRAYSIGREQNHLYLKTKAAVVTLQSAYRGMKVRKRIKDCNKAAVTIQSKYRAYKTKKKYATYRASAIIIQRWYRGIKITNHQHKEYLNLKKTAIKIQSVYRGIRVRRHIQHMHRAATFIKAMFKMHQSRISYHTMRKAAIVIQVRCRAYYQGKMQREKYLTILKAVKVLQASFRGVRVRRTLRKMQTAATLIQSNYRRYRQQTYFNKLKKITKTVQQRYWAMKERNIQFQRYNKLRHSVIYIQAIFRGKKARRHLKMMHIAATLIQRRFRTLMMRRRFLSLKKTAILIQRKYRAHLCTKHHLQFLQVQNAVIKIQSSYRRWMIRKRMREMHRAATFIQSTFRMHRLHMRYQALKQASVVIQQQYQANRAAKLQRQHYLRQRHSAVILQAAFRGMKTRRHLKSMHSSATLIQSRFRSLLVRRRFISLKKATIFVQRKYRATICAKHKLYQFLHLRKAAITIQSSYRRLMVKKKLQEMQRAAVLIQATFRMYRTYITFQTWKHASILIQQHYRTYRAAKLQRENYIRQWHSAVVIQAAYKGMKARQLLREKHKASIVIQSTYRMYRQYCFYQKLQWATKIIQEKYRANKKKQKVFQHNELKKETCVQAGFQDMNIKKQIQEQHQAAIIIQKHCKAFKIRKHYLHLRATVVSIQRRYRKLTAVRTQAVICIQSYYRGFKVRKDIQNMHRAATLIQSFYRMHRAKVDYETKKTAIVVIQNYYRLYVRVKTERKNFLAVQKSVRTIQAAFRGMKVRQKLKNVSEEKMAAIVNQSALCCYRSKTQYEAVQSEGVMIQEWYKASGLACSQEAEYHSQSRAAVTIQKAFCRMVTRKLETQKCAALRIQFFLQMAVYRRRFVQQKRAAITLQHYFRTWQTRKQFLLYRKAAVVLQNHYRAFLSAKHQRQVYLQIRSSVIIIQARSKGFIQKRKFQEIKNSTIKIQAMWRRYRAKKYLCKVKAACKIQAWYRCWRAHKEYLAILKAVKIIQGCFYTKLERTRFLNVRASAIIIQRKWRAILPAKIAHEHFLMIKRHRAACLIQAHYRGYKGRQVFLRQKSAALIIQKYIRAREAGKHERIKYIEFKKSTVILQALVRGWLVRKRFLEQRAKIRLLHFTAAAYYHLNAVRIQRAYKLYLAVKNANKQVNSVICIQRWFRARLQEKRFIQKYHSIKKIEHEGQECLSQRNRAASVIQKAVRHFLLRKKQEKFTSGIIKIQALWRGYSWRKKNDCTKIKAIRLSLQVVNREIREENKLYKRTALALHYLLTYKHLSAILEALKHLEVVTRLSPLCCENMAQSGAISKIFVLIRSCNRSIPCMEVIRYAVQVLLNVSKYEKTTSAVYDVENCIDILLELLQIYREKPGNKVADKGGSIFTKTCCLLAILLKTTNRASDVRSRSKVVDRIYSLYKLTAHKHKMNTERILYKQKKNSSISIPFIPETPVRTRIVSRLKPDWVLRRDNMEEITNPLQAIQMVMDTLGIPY
UniProt P21283, whole entry, looked up: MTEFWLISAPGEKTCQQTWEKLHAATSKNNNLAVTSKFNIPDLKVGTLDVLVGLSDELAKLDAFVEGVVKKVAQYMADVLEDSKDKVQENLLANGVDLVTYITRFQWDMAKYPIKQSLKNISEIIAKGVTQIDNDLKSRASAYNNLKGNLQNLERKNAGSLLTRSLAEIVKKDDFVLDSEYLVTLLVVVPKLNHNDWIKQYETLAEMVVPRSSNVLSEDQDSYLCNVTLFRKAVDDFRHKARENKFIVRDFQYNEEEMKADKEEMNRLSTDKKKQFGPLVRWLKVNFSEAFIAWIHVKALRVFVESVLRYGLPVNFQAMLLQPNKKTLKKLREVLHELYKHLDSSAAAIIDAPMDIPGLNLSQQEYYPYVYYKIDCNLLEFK
UniProt P56381: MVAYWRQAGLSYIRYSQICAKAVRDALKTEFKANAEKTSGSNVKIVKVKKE
UniProt Q9H6S1, whole entry, looked up: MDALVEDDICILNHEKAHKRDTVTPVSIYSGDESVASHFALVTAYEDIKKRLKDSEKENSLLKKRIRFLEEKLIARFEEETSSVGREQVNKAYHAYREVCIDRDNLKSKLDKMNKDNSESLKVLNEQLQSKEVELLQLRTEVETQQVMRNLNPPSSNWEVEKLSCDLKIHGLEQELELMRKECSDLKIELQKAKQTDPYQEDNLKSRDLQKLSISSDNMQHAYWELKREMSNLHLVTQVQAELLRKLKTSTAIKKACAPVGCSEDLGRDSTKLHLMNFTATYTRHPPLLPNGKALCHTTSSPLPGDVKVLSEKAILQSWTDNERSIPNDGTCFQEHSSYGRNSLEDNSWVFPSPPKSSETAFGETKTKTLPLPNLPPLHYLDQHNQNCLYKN
UniProt P48047: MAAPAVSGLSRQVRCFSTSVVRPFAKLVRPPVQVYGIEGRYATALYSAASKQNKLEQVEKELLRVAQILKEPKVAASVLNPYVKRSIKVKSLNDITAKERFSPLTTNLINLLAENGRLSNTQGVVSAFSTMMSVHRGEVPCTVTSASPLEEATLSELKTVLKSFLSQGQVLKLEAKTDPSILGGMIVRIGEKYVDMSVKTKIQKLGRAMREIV
UniProt P36542: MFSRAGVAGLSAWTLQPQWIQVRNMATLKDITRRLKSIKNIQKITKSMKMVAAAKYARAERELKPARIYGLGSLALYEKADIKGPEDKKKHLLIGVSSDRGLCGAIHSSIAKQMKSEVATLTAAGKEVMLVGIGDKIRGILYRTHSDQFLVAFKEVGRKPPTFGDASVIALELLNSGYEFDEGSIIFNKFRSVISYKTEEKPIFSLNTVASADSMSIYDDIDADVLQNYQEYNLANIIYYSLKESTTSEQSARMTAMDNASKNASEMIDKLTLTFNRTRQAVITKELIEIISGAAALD
UniProt O95260: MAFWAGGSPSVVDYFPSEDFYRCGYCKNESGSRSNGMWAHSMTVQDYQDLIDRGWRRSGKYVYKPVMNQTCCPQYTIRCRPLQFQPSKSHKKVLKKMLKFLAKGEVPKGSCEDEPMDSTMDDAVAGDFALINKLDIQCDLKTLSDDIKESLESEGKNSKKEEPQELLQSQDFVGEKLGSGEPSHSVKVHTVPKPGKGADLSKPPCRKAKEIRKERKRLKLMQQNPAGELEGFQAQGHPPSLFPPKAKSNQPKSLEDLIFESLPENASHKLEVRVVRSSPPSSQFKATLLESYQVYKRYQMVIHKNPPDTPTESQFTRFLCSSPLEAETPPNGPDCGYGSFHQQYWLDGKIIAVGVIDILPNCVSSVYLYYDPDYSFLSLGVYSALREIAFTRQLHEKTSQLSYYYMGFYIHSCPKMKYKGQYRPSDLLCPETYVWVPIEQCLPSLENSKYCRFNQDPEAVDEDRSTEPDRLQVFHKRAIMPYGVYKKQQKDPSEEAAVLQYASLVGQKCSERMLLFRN

[2] = compound: CS(=O)(=O)N1CCN(Cc2cc3nc(-c4cccc5[nH]ncc45)nc(N4CCOCC4)c3s2)CC1 [pictilisib]
In short: as §1

[3] = compound: C[C@@H](Oc1cc(-c2cnn(C3CCNCC3)c2)cnc1N)c1c(Cl)ccc(F)c1Cl [crizotinib]
In short: as §1

[4] = compound: C[C@H](C1=CC=C(C=C1)C(=O)NC2=C3C=CNC3=NC=C2)N
In short: as §1

[5] = compound: C[C@H](Nc1ncnc2nc[nH]c12)c1cc2cccc(Cl)c2c(=O)n1-c1ccccc1 [duvelisib]
In short: as §1

[6] = compound: Cc1cc(Nc2cc(CN3CCOCC3)c3nc(C)c(Cc4ccc(Cl)cc4F)n3n2)n[nH]1 [gandotinib]
In short: as §1

[7] = compound: Cc1cc(Nc2cc(N3CCN(C)CC3)nc(Sc3ccc(NC(=O)C4CC4)cc3)n2)n[nH]1 [tozasertib]
In short: as §1

[8] = compound: Cc1ccc(-n2nc(C(C)(C)C)cc2NC(=O)Nc2ccc(OCCN3CCOCC3)c3ccccc23)cc1 [doramapimod]
In short: as §1

[9] = compound: Cc1ccc(NC(=O)c2ccc(CN3CC[C@H](N(C)C)C3)c(C(F)(F)F)c2)cc1Nc1nccc(-c2cncnc2)n1 [bafetinib]
In short: as §1

[10] = compound: Cc1cccc(CC(=O)N2CCc3c2ccc(-c2cn(C)c4ncnc(N)c24)c3F)n1
In short: as §1

[11] = compound: Cc1cn(-c2cc(NC(=O)c3ccc(C)c(Nc4nccc(-c5cccnc5)n4)c3)cc(C(F)(F)F)c2)cn1 [nilotinib]
In short: as §1

[12] = compound: Cc1nc(Nc2n[nH]c3c2CN(C(=O)N[C@H](CN(C)C)c2ccccc2)C3(C)C)c2sccc2n1
In short: as §1

[13] = compound: Cc1nc(Nc2ncc(C(=O)Nc3c(C)cccc3Cl)s2)cc(N2CCN(CCO)CC2)n1 [dasatinib]
In short: as §1

[14] = compound: Cc1ncc(-c2ccnc(Nc3ccc(S(C)(=O)=O)cc3)n2)n1C(C)C
In short: as §1

[15] = compound: Cn1cc(-c2ccc3c(c2)CCN3C(=O)Cc2cccc(C(F)(F)F)c2)c2c(N)ncnc21
In short: as §1

[16] = compound: Cn1cc(CNCC2CCN(c3ncc(C(=O)NO)cn3)CC2)c2ccccc21 [quisinostat]
In short: as §1

[17] = compound: Cn1cncc1[C@@](N)(c1ccc(Cl)cc1)c1ccc2c(c1)c(-c1cccc(Cl)c1)cc(=O)n2C [tipifarnib]
In short: as §1

[18] = compound: NC(=O)Nc1cc(-c2cccc(F)c2)sc1C(=O)N[C@H]1CCCNC1
In short: as §1

[19] = compound: NC(=O)c1cnc(N[C@@H]2CCCC[C@@H]2N)nc1Nc1cccc(-n2nccn2)c1
In short: as §1

[20] = compound: NC1(c2ccc(-c3nc4ccn5c(=O)[nH]nc5c4cc3-c3ccccc3)cc2)CCC1
In short: as §1

Row | Target | log2 fold change [1] | log2 fold change [2] | log2 fold change [3] | log2 fold change [4] | log2 fold change [5] | log2 fold change [6] | log2 fold change [7] | log2 fold change [8] | log2 fold change [9] | log2 fold change [10] | log2 fold change [11] | log2 fold change [12] | log2 fold change [13] | log2 fold change [14] | log2 fold change [15] | log2 fold change [16] | log2 fold change [17] | log2 fold change [18] | log2 fold change [19] | log2 fold change [20]
1 | ATPAF1 (UniProt Q5TC12) | inactive: 0.004 | inactive: -0.027 | inactive: -0.024 | inactive: 0.15 | inactive: 0.03 | inactive: -0.061 | inactive: 0.024 | inactive: 0.047 | inactive: -0.082 | inactive: -0.05 | inactive: 0.04 | inactive: -0.015 | inactive: -0.017 | inactive: -0.036 | inactive: -0.054 | inactive: -0.042 | inactive: -0.017 | inactive: 0.001 | inactive: 0.017 | inactive: 0.006
2 | ATRIP (UniProt Q8WXE1) | inactive: -0.046 | inactive: 0.187 | inactive: 0.012 | inactive: -0.034 | inactive: -0.016 | inactive: -0.056 | inactive: 0.097 | inactive: 0.001 | inactive: -0.035 | inactive: 0.006 | inactive: -0.014 | inactive: -0.028 | inactive: -0.059 | inactive: 0.071 | inactive: 0.045 | inactive: -0.03 | inactive: -0.049 | inactive: -0.007 | inactive: 0.01 | inactive: 0.032
3 | ATXN2 (UniProt F8WB05) | inactive: 0.06 | inactive: 0.005 | inactive: -0.023 | inactive: 0.087 | inactive: -0.065 | inactive: -0.028 | inactive: 0.043 | inactive: -0.12 | inactive: 0.045 | inactive: 0.001 |  |  | inactive: 0.035 |  | inactive: -0.058 | inactive: -0.208 |  | inactive: -0.025 | inactive: 0.025 | inactive: -0.394
4 | ATP5F1B (UniProt F8W079) | inactive: 0.055 | inactive: -0.282 |  |  |  |  | inactive: 0.135 |  | inactive: -0.109 |  | inactive: -0.24 | inactive: 0.152 |  | inactive: -0.245 |  |  | inactive: 0.351 |  | inactive: -0.101 | 
5 | ASPM (UniProt Q8IZT6) | inactive: 0 |  | inactive: 0.017 | inactive: 0.007 | inactive: -0.022 | inactive: -0.03 | inactive: -0.031 | inactive: -0.017 |  | inactive: -0.024 | inactive: -0.018 | inactive: 0.006 | inactive: 0.075 | inactive: 0.023 | inactive: 0.089 | inactive: 0.051 | inactive: 0.009 | inactive: 0.018 | inactive: -0.015 | inactive: -0.007
6 | ATP6V1C1 (UniProt P21283) | inactive: -0.003 | inactive: -0.002 | inactive: -0.036 | inactive: -0.014 | inactive: -0.012 | inactive: -0.032 | inactive: 0.01 | inactive: 0.025 | inactive: 0.02 | inactive: -0.005 | inactive: -0.023 | inactive: 0.006 | inactive: -0.011 | inactive: 0.004 | inactive: 0.03 | inactive: -0.013 | inactive: 0.01 | inactive: -0.019 | inactive: 0.019 | inactive: 0.014
7 | ATP11A (UniProt P98196) | inactive: -0.118 | inactive: -0.087 | inactive: -0.005 | inactive: -0.108 | inactive: 0.081 | inactive: 0.017 | inactive: 0.009 | inactive: -0.07 | inactive: -0.05 | inactive: 0.1 | inactive: -0.046 | inactive: -0.053 | inactive: 0.018 | inactive: 0.011 | inactive: 0.035 | inactive: 0.002 | inactive: 0.019 | inactive: 0.043 | inactive: -0.045 | inactive: -0.012
8 | ATP6V0A1 (UniProt Q93050) | inactive: -0.253 | inactive: 0.139 | inactive: -0.04 | inactive: -0.077 | inactive: -0.109 | inactive: 0.038 |  | inactive: -0.016 | inactive: 0.064 | inactive: 0.051 |  |  | inactive: -0.078 |  | inactive: 0.036 | inactive: 0.045 |  | inactive: 0.061 | inactive: -0.114 | inactive: -0.221
9 | ATG13 isoform 2 (UniProt O75143) | inactive: 0.018 | inactive: 0.014 | inactive: -0.022 | active: -0.271 | inactive: 0.016 | inactive: 0.172 | inactive: 0.05 | inactive: 0.049 | inactive: -0.123 | inactive: 0.137 | inactive: -0.034 | inactive: 0.036 | inactive: 0.002 | inactive: 0.028 | inactive: -0.069 | inactive: -0.052 | inactive: -0.018 | inactive: 0.059 | inactive: 0 | inactive: -0.014
10 | ATP1B2 (UniProt P14415) | inactive: -0.048 | inactive: -0.069 |  |  | inactive: -0.092 |  |  |  | inactive: 0.133 |  |  |  | inactive: 0.02 |  | inactive: 0.011 |  |  |  | inactive: -0.04 | inactive: -0.027
11 | ATP5F1E (UniProt P56381) | inactive: 0.019 | inactive: 0.065 | inactive: 0.039 | inactive: 0.013 | inactive: 0.02 | inactive: 0.006 | inactive: 0.025 | inactive: 0.131 | inactive: 0.063 | inactive: 0.023 | inactive: -0.037 | inactive: 0.075 | inactive: 0.047 | inactive: 0.061 | inactive: 0.027 | inactive: -0.033 | inactive: -0.057 | inactive: -0.053 | inactive: 0.032 | inactive: -0.028
12 | ASCC3 (UniProt Q8N3C0) | inactive: -0.068 | inactive: -0.014 | inactive: -0.111 | inactive: -0.071 | inactive: -0.005 | inactive: 0.082 | inactive: -0.009 | inactive: 0.013 | inactive: -0.102 | inactive: 0.148 | inactive: -0.007 | inactive: 0.003 | inactive: -0.032 | inactive: -0.001 | inactive: -0.008 | inactive: -0.118 | inactive: -0.013 | inactive: 0.055 | inactive: 0.006 | inactive: -0.07
13 | AZI2 (UniProt Q9H6S1) | inactive: 0.01 | inactive: 0 | inactive: 0.051 | inactive: -0.019 | inactive: -0.004 | inactive: 0.234 | inactive: 0.138 | inactive: 0.114 | inactive: -0.066 | inactive: -0.136 | inactive: -0.047 | inactive: -0.012 | inactive: 0.03 | inactive: -0.005 | inactive: -0.013 | inactive: -0.082 | inactive: -0.032 | inactive: -0.099 | inactive: 0.109 | inactive: -0.066
14 | ATP5PO (UniProt P48047) | inactive: -0.027 | inactive: 0.012 | inactive: 0.02 | inactive: 0.034 | inactive: -0.036 | inactive: -0.033 | inactive: -0.013 | inactive: -0.032 | inactive: 0.12 | inactive: -0.062 | inactive: 0 | inactive: -0.013 | inactive: 0.02 | inactive: 0.005 | inactive: -0.016 | inactive: 0.027 | inactive: 0.003 | inactive: 0.006 | inactive: -0.007 | inactive: 0.011
15 | ASXL2 (UniProt Q76L83) | inactive: 0.055 | inactive: -0.1 | inactive: -0.038 | inactive: 0.069 | inactive: -0.073 | inactive: -0.091 |  | inactive: -0.099 | inactive: 0.032 | inactive: 0.082 |  |  | inactive: 0.017 |  | inactive: -0.098 | inactive: 0.155 |  | inactive: -0.009 | inactive: -0.001 | inactive: -0.354
16 | ATP5F1C (UniProt P36542) | inactive: -0.004 | inactive: 0.016 | inactive: 0.032 | inactive: 0.01 | inactive: 0.007 | inactive: 0.007 | inactive: 0.025 | inactive: 0.003 | inactive: 0.038 | inactive: -0.002 | inactive: -0.013 | inactive: 0.012 | inactive: 0.034 | inactive: -0.005 | inactive: 0.009 | inactive: -0.01 | inactive: 0.005 | inactive: 0.013 | inactive: -0.001 | inactive: -0.008
17 | ATE1 (UniProt O95260) | inactive: -0.03 | inactive: -0.047 | inactive: -0.068 | inactive: 0.032 |  | inactive: -0.019 |  | inactive: 0.043 | inactive: -0.039 | inactive: 0.009 |  |  |  |  |  | inactive: 0.019 |  | inactive: -0.093 | inactive: 0.026 | 
18 | ATF7IP2 (UniProt Q5U623) | inactive: -0.03 | inactive: 0.05 | inactive: -0.215 | inactive: 0.05 |  | inactive: 0.027 |  | inactive: 0.073 | inactive: -0.023 | inactive: -0.155 | inactive: -0.003 | inactive: 0.008 |  | inactive: -0.089 |  | active: -0.336 | inactive: -0.064 | inactive: 0.001 | inactive: 0.036 | inactive: -0.127

Part of the list above, with tabs:
Row	Target	log2 fold change [1]	log2 fold change [2]	log2 fold change [3]	log2 fold change [4]	log2 fold change [5]	log2 fold change [6]	log2 fold change [7]	log2 fold change [8]	log2 fold change [9]	log2 fold change [10]	log2 fold change [11]	log2 fold change [12]	log2 fold change [13]	log2 fold change [14]	log2 fold change [15]	log2 fold change [16]	log2 fold change [17]	log2 fold change [18]	log2 fold change [19]	log2 fold change [20]
4	ATP5F1B (UniProt F8W079)	inactive: 0.055	inactive: -0.282					inactive: 0.135		inactive: -0.109		inactive: -0.24	inactive: 0.152		inactive: -0.245			inactive: 0.351		inactive: -0.101	
15	ASXL2 (UniProt Q76L83)	inactive: 0.055	inactive: -0.1	inactive: -0.038	inactive: 0.069	inactive: -0.073	inactive: -0.091		inactive: -0.099	inactive: 0.032	inactive: 0.082			inactive: 0.017		inactive: -0.098	inactive: 0.155		inactive: -0.009	inactive: -0.001	inactive: -0.354
16	ATP5F1C (UniProt P36542)	inactive: -0.004	inactive: 0.016	inactive: 0.032	inactive: 0.01	inactive: 0.007	inactive: 0.007	inactive: 0.025	inactive: 0.003	inactive: 0.038	inactive: -0.002	inactive: -0.013	inactive: 0.012	inactive: 0.034	inactive: -0.005	inactive: 0.009	inactive: -0.01	inactive: 0.005	inactive: 0.013	inactive: -0.001	inactive: -0.008
17	ATE1 (UniProt O95260)	inactive: -0.03	inactive: -0.047	inactive: -0.068	inactive: 0.032		inactive: -0.019		inactive: 0.043	inactive: -0.039	inactive: 0.009						inactive: 0.019		inactive: -0.093	inactive: 0.026	

— the supplement of paper PMC10849652
